Test results published in the supplement of paper PMC8846439.
Counter-ions that a name gives are not always drawn. The list shows a part of the results. Many values rest on one well or one pass, so single values are uncertain.

What follows are molecules tested on Trypanosoma brucei brucei bloodstream form L262P (kDNA-independent) (assay: viability Z-score (nuclei count per well, median-polish normalised, relative to plate distribution); higher = more viable parasites (negative = growth inhibition)). Settings: 4 days; compound concentration: 10 µM (some Prestwick/PKE rows may be 1 µM / not distinguished).
For c12N(/C=C(\C(c1cc(c(n2)N1CC(CC1)N)F)=O)/C(=O)O)c1c(cc(cc1)F)F (configuration not stated) [Tosufloxacin hydrochloride], the “viability Z-score” value was -3.34. In the case of N#C/C1=C/C=C(/NC(=O)C[S]CC(=O)O)C=C1, the “viability Z-score” value is reported as -3.24. In the case of CCOC(=O)[C@@]1(C#N)[C@H](c2ccccc2)C[C@@](O)(c2ccccc2)[C@@H](C(=O)c2ccccc2)[C@@H]1c1ccccc1, the “viability Z-score” value is reported as -8.34. With CC(CN(C)C)C(C)(O)Cc1ccc(Cl)cc1 (configuration not stated) [Clobutinol hydrochloride] the “viability Z-score” value was -3.19. For O=C(NCC=1/C=C(/[Br])C=CC=1OC)CC/C2=N/C(=NO2)C=3[S]C=CC=3, the “viability Z-score” value was -2.94. For Cc1nn(-c2ccc(F)cc2F)c2c1C(Cl)=C(/C=N/Nc1cc(C(F)(F)F)cc(C(F)(F)F)c1)CC2, the “viability Z-score” value was -6.94. In the case of Cc1c(C(=O)N2CCOCC2)oc2c1C(=O)CC(C)(C)C2, the “viability Z-score” value is reported as -3.92.
